Results are given in words; binding and its absence hold for the method and conditions named. Binding seen in cells or lysates may run through a third protein. Some entries that bind do so weakly or less than the wild type.
Biological target: Sp1 (human (endogenous in H1975)) (UniProt P08047)
Assay: co-IP; precleared whole cell lysates (250-500 µg) of H1975 parental cells and H1975 tumor spheres, incubated overnight at 4 °C with anti-Sp1 (D4C3) or anti-p53 (DO-1) antibody, recovered on Protein A affinity gel, western blot

Protein sequences, listed by entry. Tags and fused reporters are not part of them.
UniProt P08047: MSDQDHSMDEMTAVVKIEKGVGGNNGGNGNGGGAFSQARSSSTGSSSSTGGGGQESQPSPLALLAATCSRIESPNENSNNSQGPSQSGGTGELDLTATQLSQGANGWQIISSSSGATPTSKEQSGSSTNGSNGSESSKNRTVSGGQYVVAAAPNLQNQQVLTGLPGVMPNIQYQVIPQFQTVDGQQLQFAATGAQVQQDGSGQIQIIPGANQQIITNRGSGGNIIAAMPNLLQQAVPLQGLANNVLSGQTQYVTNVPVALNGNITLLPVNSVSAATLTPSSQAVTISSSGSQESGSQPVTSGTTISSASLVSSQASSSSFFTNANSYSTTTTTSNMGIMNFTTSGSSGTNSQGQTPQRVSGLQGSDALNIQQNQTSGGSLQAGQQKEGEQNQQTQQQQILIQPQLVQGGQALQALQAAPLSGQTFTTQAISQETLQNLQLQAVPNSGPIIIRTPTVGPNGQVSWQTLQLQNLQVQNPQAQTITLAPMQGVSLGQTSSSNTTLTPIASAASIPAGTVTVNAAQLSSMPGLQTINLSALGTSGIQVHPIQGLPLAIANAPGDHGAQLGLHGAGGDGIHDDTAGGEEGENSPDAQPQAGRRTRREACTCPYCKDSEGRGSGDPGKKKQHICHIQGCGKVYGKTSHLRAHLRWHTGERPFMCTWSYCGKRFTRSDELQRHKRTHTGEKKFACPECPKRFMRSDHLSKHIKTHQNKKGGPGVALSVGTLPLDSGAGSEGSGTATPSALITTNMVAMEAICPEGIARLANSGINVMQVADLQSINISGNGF

B1: Hey1 (protein, UniProt Q9Y5J3 1-304)
chain: MKRAHPEYSSSDSELDETIEVEKESADENGNLSSALGSMSPTTSSQILARKRRRGIIEKRRRDRINNSLSELRRLVPSAFEKQGSAKLEKAEILQMTVDHLKMLHTAGGKGYFDAHALAMDYRSLGFRECLAEVARYLSIIEGLDASDPLRVRLVSHLNNYASQREAASGAHAGLGHIPWGTVFGHHPHIAHPLLLPQNGHGNAGTTASPTEPHHQGRLGSAHPEAPALRAPPSGSLGPVLPVVTSASKLSPPLLSSVASLSAFPFSFGSFHLLSPNALSPSAPTQAANLGKPYRPWGTEIGAF
B1 was tested, and the binding was “binds”.

— article PMC8122511
